Screening data, single-dose tests

Mtb cholesterol medium: 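Phenotypic screen: M. tuberculosis growth, cholesterol and DPPC medium, 4 days; the read-out is not stated. Tested at 50 µM. Higher reads as more growth inhibition (inferred: compounds with an IC50 in retests scored well above the rest). Of about 69,000 compounds tested this way, about 370 (0.54%) reached 50% or more in at least one test.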
Mtb glucose medium: 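Whole-cell growth test on Mycobacterium tuberculosis, read after 3 days in glucose-containing 7H9 medium; the read-out is not stated. Compounds at 50 µM. The record gives no direction; compounds that gave an IC50 in retests scored well above the rest, so higher reads as more growth inhibition. Size under these conditions: about 69,000 compounds, about 760 of them at 50% or above in at least one test.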

Results are given as percent effect. The record does not define 0% and 100%; most values in the screen are far below 50% and negative numbers occur (in some assays of this library far below -100). Compounds were drawn at random from those tested, without regard to their results. Two or more numbers in one place are separate tests of the same structure; such repeats can differ widely.

| structure | Mtb cholesterol medium | Mtb glucose medium |
|---|---|---|
| `O=C(O)C(F)(F)F.[H][C@@]12CCCO[C@]1([H])[C@H](OCC(=O)N(C)C)CN2Cc1ccccc1F` | -0.9358% | 2.183% and 11.72% |
| `Cc1ccc(C(C)C(=O)N2CCCN(Cc3cscn3)CC2)cc1` (stereo not shown) | -10.36% | 6.494% |
| `O=S(=O)(NCCC(O)c1cccs1)c1ccccc1Cl` (stereo not shown) | 5.321% | 9.233% and 10.61% |
| `OC1(CN2CCC(Cc3ncccn3)CC2)CCCCC1` | 0.7008% | -3.928% |
| `CCn1nc(C)c(CNCCn2cc(C)cn2)c1C` | -4.635% | -21.67% |
| `CCOc1ncccc1NC(=O)N1CCCCCC1` | 3.48% | 9.516% |
| `N#Cc1cn(C2CC2)c(=O)n(Cc2cc(-c3cccs3)on2)c1=O` | 12.98% | 15.3% |
| `O=C(Nc1ccc(F)cc1)N1CCN(Cc2noc(C3CC3)n2)CC1` | 5.784% | 18.24% |
| `CCC[C@H]1CN(C2CCOCC2)C[C@@H]1NC(=O)CCc1cnccn1` | 11.66% | 4.455% and -15.15% |
| `CC(NCC1CCN(CCO)CC1)c1cccc(Cl)c1` (stereo not shown) | 14.87% | 25.26% |
| `CN(Cc1ccsc1)C(=O)CS(=O)(=O)Cc1ccc(Cl)c(Cl)c1` | 5.372% | 25.6% |
| `Cc1ccc(C)c(OCCNC(=O)[C@@H]2CCCCN2)c1` | 1.942% | -38.59% |
| `Cc1nc(C)n(C2CCCN(C(=O)c3cscn3)C2)n1` (stereo not shown) | -18.46% | -40.58% |
| `COc1cccc(OCC(=O)NS(=O)(=O)c2ccc(C)s2)c1` | -15.52% | -17.83% |
| `O=S(=O)(Nc1cnc(N2CCOCC2)nc1)c1ccc(Cl)cc1` | 16.83% | -11.56% |
| `COc1cccc2c1ccn2CC(=O)N[C@@H](CCSC)C(=O)O` | -2.267% | -15.27% |
| `Cc1cc(C(F)(F)F)nn1CCCNC(=O)C1CCCC1` | -2.248% | 3.707% and -15.3% |
| `Cc1cc(C)c(CNC(=O)CC2CCCO2)c(=O)[nH]1` (stereo not shown) | 6.778% | 6.817% |
| `Cc1oc(CNC(=O)Cc2ccc3ccccc3c2)cc1C(=O)O` | 1.333% | -12.26% and 6.534% |
| `Cn1ccc2cc(C(=O)Nc3nc[nH]n3)ccc21` | -4.887% | -7.974% |
| `Cn1cc(CC2CCN(C(=O)NCc3cccc(C(N)=O)c3)C2)cn1` (stereo not shown) | 4.853% | -6.594% |
| `O=c1cc(Cn2ccnc2)nc2n1CCCN(Cc1ccco1)C2` | 8.225% | -7.413% and -7.066% |
| `COCC1CN(Cc2ccncc2)Cc2nn(C)cc21` (stereo not shown) | -59.6% | -68.45% |
| `[H][C@]12CC[C@]([H])(CN(c3nccc(OC)n3)C1)N(CC1CCC1)C2=O` | 5.645% | 7.498% |
| `Cc1ccc(NC(=O)CC2Cn3ncnc3NC2=O)cc1C` (stereo not shown) | -5.468% | 21.85% |
| `Cc1occc1C(=O)NCC(=O)N1CCC(COc2ccccc2)CC1` | -5.509% | 0.89% and 16.57% |
| `CCCn1cc(NC(=O)c2ccc(N(C)CC)cc2)ccc1=O` | -7.296% | -14.61% |
| `CCc1nc(N2CCOCC2)ncc1C(=O)NC(c1cccs1)C(C)C` (stereo not shown) | 3.104% | 15.64% |
| `COCCN1C(=O)CC(N2CCN(c3ccc(F)cc3)CC2)C1=O` (stereo not shown) | -13.75% | -39.52% and -6.038% |
| `COc1ccccc1CC(=O)NS(=O)(=O)c1cncc(Br)c1` | -1.874% | -1.89% |
| `Cc1n[nH]c(C)c1CCc1ccc(S(C)(=O)=O)cc1` | -4.016% | 8.609% and -0.3621% |
| `COc1ccccc1C1=NOC(CC2(C(=O)NC(C)C)CCOCC2)C1` (stereo not shown) | -24.81% | -11.21% |
| `CC(C)c1sc(Br)nc1C(=O)NCc1ccncc1` | -5.332% | 12.35% and 14.29% |
| `CCS(=O)(=O)N1Cc2ccccc2CC1C(=O)OCc1c(C)noc1C` (stereo not shown) | 0.0745% | 3.503% |
| `[H][C@@]12CS(=O)(=O)C[C@]1([H])N(S(=O)(=O)N1CCCC1)CCN2Cc1ccccc1` | -7.771% | 11.99% |
| `Cc1nc(CNC(=O)N2CCN(c3ccc(Cl)cn3)CC2)no1` | -12.62% | -14.23% |
| `CN(C)C(=O)c1ccc(-c2cccc3c2CCNC3)o1` | 5.574% | -20.19% |
| `O=C(C1SCCc2sccc21)N1CCN(CCO)CC1` (stereo not shown) | -8.577% and -3.729% | 20.44% |
| `Cc1ccc(CN2CCC3(CC2)NC(=O)CC3c2ccncc2)cc1C.O=C(O)C(F)(F)F.O=C(O)C(F)(F)F` (stereo not shown) | -20.53% | -17.63% |
| `Cc1n[nH]c2c1C(c1ccc(F)cc1)SCC(=O)N2` (stereo not shown) | 2.651% | 5.698% |
| `CC(c1cccnc1)N1CCN(CCCC#N)CC1` (stereo not shown) | -3.959% | -2.125% |
| `CS(=O)(=O)N1CCCCCC1C1CCN(Cc2nc(C3CC3)no2)CC1` (stereo not shown) | -8.974% | -14.66% |
| `CC(=O)N1CCc2[nH]cnc2C12CCN(C(=O)Cc1cccs1)CC2` | 0.02517% | 5.638% |
| `COCCC(=O)NCC1Cn2nnc(-c3cccc(F)c3)c2CO1` (stereo not shown) | -0.7549% | 0.9455% and 4.28% |
| `O=C(C1CN(CC2CCOCC2)CC12CCOCC2)N1CCCC1.O=C(O)C(F)(F)F` (stereo not shown) | -0.6396% | -41.33% and 14.58% |
| `Cc1cc(C)c(CN2CCCC23Cc2ccccc2CNC3=O)c(C)c1` (stereo not shown) | -3.942% | 3.941% |
| `CN1CCN(CCO)C(=O)C12CCN(Cc1ccsc1)CC2.O=C(O)C(F)(F)F.O=C(O)C(F)(F)F` | 2.296% | -9.132% |
| `CN(C)CCC1CN(C(=O)c2cccc3c2OCC3)CCO1` (stereo not shown) | -42.18% | -1.978% and -78.84% |
| `O=C(NCCNc1cnccn1)N1CC=C(c2ccc(O)cc2)CC1` | 8.281% | -16.78% |
| `O=S(=O)(CC1CCCN1S(=O)(=O)C1CC1)c1ccccc1` (stereo not shown) | 5.259% | 20.44% |
| `COc1cccc(CNC2CCCOc3cc(C)ccc32)n1` (stereo not shown) | 3.881% | 5.137% and 10.86% |
| `COc1ccc(-c2cc(N)on2)cc1` | -11.13% | -32.82% |
| `CN(CCN1CCCCC1)C(=O)c1cc(CN2CCOCC2)on1` | -3.337% | -14.17% and 4.364% |
| `Cc1c(F)cccc1S(=O)(=O)Nc1noc(C(C)C)n1` | 16.85% | 31.62% and -0.3717% |
| `N#CC(NC(=O)CCC1CCC1)c1cnn(-c2ccccc2)c1` (stereo not shown) | -25.99% | 9.029% |
| `NS(=O)(=O)N1CCc2ccc(NC(=O)Cc3ccc(F)cc3)cc21` | -6.819% | 20.37% and -11.09% |
| `CC1CN(C(=O)NCCCn2cncn2)CCO1` (stereo not shown) | -5.55% | -38.24% |
| `[H][C@@]12CN(Cc3ccc(C)s3)C[C@]1([H])C(=O)N(CC1CCN(C)CC1)C2` | 28.53% | 35.41% |
| `c1ccc(N2CCN(Cc3cnc(C4CCCCO4)nc3)CC2)cc1` (stereo not shown) | 0.06974% | -0.5883% |
| `N#CC(NC(=O)CC1CCSCC1)c1cnn(-c2ccccc2)c1` (stereo not shown) | -20.46% | 7.855% |
| `COc1ccc2c(C)nc(N3C[C@@H](C)O[C@@H](C)C3)nc2c1` | -29.42% | -2.398% and 0.9451% |
| `O=C(COC1CCCC1)N1CCCC1c1noc(C2CC2)n1` (stereo not shown) | 4.53% | -4.932% |
| `COCCc1noc(CN(C)c2nc(C)cc(C)n2)n1` | -3.574% | 23.62% and -0.5711% |
| `Cc1cc(N2CCC(N(C)Cc3cccnc3)C2=O)n(C)n1` (stereo not shown) | 11.6% | 18.92% |
| `CN1CC2(CCN(C(=O)c3cn4cccnc4n3)CC2)CC1=O` | -1.256% | -17.65% |
| `Cn1cc(CNCC2(O)CCCN(Cc3ccc(F)c(F)c3)C2=O)cn1` (stereo not shown) | 2.732% | -33.76% |
| `O=c1c2cccc(Cl)c2ncn1C1CCNC1` (stereo not shown) | -28.39% | -2.028% |

The last 6 entries again:

{"structure": "O=C(COC1CCCC1)N1CCCC1c1noc(C2CC2)n1", "stereo": "stereo not shown", "Mtb cholesterol medium": 4.53, "Mtb glucose medium": -4.932}
{"structure": "COCCc1noc(CN(C)c2nc(C)cc(C)n2)n1", "Mtb cholesterol medium": -3.574, "Mtb glucose medium": "23.62 and -0.5711"}
{"structure": "Cc1cc(N2CCC(N(C)Cc3cccnc3)C2=O)n(C)n1", "stereo": "stereo not shown", "Mtb cholesterol medium": 11.6, "Mtb glucose medium": 18.92}
{"structure": "CN1CC2(CCN(C(=O)c3cn4cccnc4n3)CC2)CC1=O", "Mtb cholesterol medium": -1.256, "Mtb glucose medium": -17.65}
{"structure": "Cn1cc(CNCC2(O)CCCN(Cc3ccc(F)c(F)c3)C2=O)cn1", "stereo": "stereo not shown", "Mtb cholesterol medium": 2.732, "Mtb glucose medium": -33.76}
{"structure": "O=c1c2cccc(Cl)c2ncn1C1CCNC1", "stereo": "stereo not shown", "Mtb cholesterol medium": -28.39, "Mtb glucose medium": -2.028}

From ChEMBL document CHEMBL3988442, “University of Dundee, Small-Polar-MMV Screening Library” (2021).